# Laboratory results published in patent US10143667B2, “Ceramide-like function imparting agent” (KAO CORPORATION, priority 2013, dated 2018).
# Some of these results come from one statement about several compounds together.
# Experiment: Evaluation of lamellar-formation ability (X-ray diffraction)
# Type: physicochemical
# Protocol: Evaluation of lamellar-formation ability was conducted according to the method by Mizushima et al. (Lipids, 30(4), 327-332 (1995)).
# Each of stearic acid and cholesterol, used as representatives of fatty acids that are horny layer intercellular lipids, as well as a sample to be evaluated was weighed to give an equimolar mixture, and an ion-exchange water was added thereto in an amount of 30 wt % of the weight of the lipids. The mixture was heat-melted and then cooled to give an evaluation sample.
# Wide-angle X-ray diffraction apparatus ((PANalytical) X' Pert MRD High Resolution X-ray Diffractometer)
# Small-angle X-ray scattering apparatus ((NANO Viewer manufactured by RIGAKU Corporation), Small-angle X-ray scattering)
# In the case where the wide-angle X-ray diffraction apparatus was used, sampling for measurement was conducted by finely grinding a sample in an agate mortar and packing the sample in a measurement cell to give a flat surface. […]
# measured range: 2θ=3° to 45°, measurement speed: 2θ=1°/min.
# Conditions for small-angle X-ray measurement: measurement cell: a sample that was packed in a stainless steel holder having grid openings was measured.
# applied voltage: […], applied current: 30 mA, X-ray irradiation period: 30 minutes, measured at a camera length of from 450 to 650 mm using a detector with an imaging plate. […]
row,Substance,Formation of a lamellar structure together with stearic acid and cholesterol (in words)
1,"(E)-2-(eicosa/docosa/tetracosa)-2-en-1-yl)-N,N,-bis(2-hydroxyethyl)succinamide [Compound 5]",could form a lamellar structure together with stearic acid and cholesterol
2,"(E)-2-(hexadeca/octadeca)-2-en-1-yl)-N,N,-bis(2-hydroxyethyl)succinamide [Compound 1]",could form a lamellar structure together with stearic acid and cholesterol
